PMC533864

Amino acid sequences for entries named in this document (tags omitted). Residues count along the entry.
UniProt P10244, 1-183: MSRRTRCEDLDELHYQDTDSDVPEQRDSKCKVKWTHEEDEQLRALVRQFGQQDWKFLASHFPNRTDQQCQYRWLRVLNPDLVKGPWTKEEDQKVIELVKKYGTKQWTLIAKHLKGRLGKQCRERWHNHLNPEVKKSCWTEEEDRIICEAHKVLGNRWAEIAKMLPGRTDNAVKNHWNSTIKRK
UniProt P10243, 1-187: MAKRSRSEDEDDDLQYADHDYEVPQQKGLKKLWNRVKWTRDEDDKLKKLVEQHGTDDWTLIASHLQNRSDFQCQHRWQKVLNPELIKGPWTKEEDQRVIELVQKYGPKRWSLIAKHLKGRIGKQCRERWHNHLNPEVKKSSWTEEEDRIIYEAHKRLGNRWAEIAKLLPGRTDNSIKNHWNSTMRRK

Assays:
B-Myb NR1R2R3 = B-Myb NR1R2R3 (UniProt P10244); experiment: EMSA; details: 20 mM Tris-HCl pH 8.0, 0.1 mM EDTA, 10% glycerol, 0.1 mM DTT, 0.005% Triton X-100, 50 mM NaCl, RNAguard 6-20 U, 20 uL, 25 C, 15 min; recombinant protein; residues 1-183; label: 32P
[1] = molecular target: A-Myb NR1R2R3 (Homo sapiens) (UniProt P10243); experiment: EMSA; details: 20 mM Tris-HCl pH 8.0, 0.1 mM EDTA, 10% glycerol, 0.1 mM DTT, 0.005% Triton X-100, 50 mM NaCl, RNAguard 6-20 U, 20 uL, 25 C, 15 min; recombinant protein; residues 1-187; label: 32P

## GCATTATAACGGTTTTTTAGCGC (double strand) [MRE probe (mim-1 promoter)]
B-Myb NR1R2R3
  binding result: binds
[1]
  binding result: binds

The exact form of at least one protein or probe is not confirmed. At least one verdict was read from the data and is not stated in words by the source.
